# Experimental data: PubChem BioAssay AID504784 (Drosophila RNAi Screening Center, 2011)
# Screen: 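Fly genes whose silencing alters how much lipid cells keep in droplets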 (primary screen)
# Cells: Drosophila Kc167 embryonic cells
# Reagents: long dsRNA against Drosophila genes, about 250 ng dsRNA per well
# Timing: 4 days
# Treatment: cells fed 400 µM oleic acid bound to BSA
# Measured: 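Microscope images give a droplet-to-nucleus area ratio, taken as log and converted to a screen-wide B-score; higher values mean greater lipid storage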
# Scale: droplet/nuclear area B-score: higher = more stored lipid (overstorage)
# The deposit covers about 17,000 reagents; below is an unselected part of those that have a named target and a result. 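Each column is one replicate's B-score; the combined score over replicates was not deposited, so single values may mislead.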 A plus sign joins genes that one reagent is predicted to hit. Not all columns of the deposit are shown. Reagent sequences are not shown.
predicted target,DRSC id,"droplet/nuclear area B-score, replicate 1"
spen,DRSC00839,-0.0218
Gr59d,DRSC22553,0.376
CG15914,DRSC19739,0.0834
CG4363,DRSC04465,0.0853
CG34149,DRSC14537,-0.699
CG16904,DRSC15161,-0.0162
CG12325,DRSC06130,-1.07
Ugt317A1,DRSC04470,-1.98
RpL34a,DRSC15964,0.143
CG6479,DRSC10647,-0.176
Cyp311a1,DRSC20239,-0.151
Alms1a,DRSC18558,-0.241
CG4575 (retired record),DRSC18372,0.843
Ser7,DRSC18201,0.0205
Ir67c,DRSC22097,-1.52
Hr78,DRSC11866,0.175
CG42383,DRSC21733,-0.927
Toll-9,DRSC11776,1.09
cad,DRSC03502,3.48
cad,DRSC23193,0.561
Or85b,DRSC16765,-0.505
Ino80,DRSC14760,-1.16
Ino80,DRSC15333,-1.68
Ino80,DRSC15501,-0.152
BORCS6,DRSC08514,1.33
Cdk9,DRSC04601,1.91
Gyc88E,DRSC15547,0.981
Aef1,DRSC11605,-0.633
Scsalpha1,DRSC08698,0.714
CG1468,DRSC17946,-1.79
CG32191,DRSC10522,1.74
RhoGAP93B,DRSC15488,-0.774
CG10822,DRSC06005,0.0101
RacGAP84C,DRSC12630,-0.676
PGAP5,DRSC03089,0.298
CG32640 + CG32641,DRSC22885,0.744
RPA3,DRSC19658,-0.0243
Osi8,DRSC12277,2.67
Ms,DRSC16041,-0.799
CG18473,DRSC16381,1.23
Gle1,DRSC06485,2.13
HBS1,DRSC08544,1.12

The list goes on (11 carried over from the part before).
predicted target,DRSC id,"droplet/nuclear area B-score, replicate 1"
RhoGAP93B,DRSC15488,-0.774
CG10822,DRSC06005,0.0101
RacGAP84C,DRSC12630,-0.676
PGAP5,DRSC03089,0.298
CG32640 + CG32641,DRSC22885,0.744
RPA3,DRSC19658,-0.0243
Osi8,DRSC12277,2.67
Ms,DRSC16041,-0.799
CG18473,DRSC16381,1.23
Gle1,DRSC06485,2.13
HBS1,DRSC08544,1.12
CG32036,DRSC10362,-0.565
phr6-4,DRSC03589,-0.0472
ush,DRSC00843,-1.05
Culd,DRSC10262,0.206
Cyp6d5,DRSC16634,-5.07
Mpcp1,DRSC07337,-0.0052
CG3999,DRSC15534,0.492
meigo,DRSC15877,0.804
Oseg5,DRSC03209,-0.12
CG12971,DRSC11681,-1.07
CG8006,DRSC10949,-1.36
CG15423,DRSC00437,0.477
Neb-cGP,DRSC17991,0.761
CG31999,DRSC17131,0.187
CG31999,DRSC17133,-1.59
kay,DRSC13962,-0.0905
kay,DRSC15048,-0.311
kay,DRSC16977,-0.422
CG1637,DRSC18865,0.177
CG1637,DRSC19748,0.575
CG1637,DRSC19749,0.226
Hs2st,DRSC03348,0.0318
TwdlL,DRSC16042,-0.00751
CG8300,DRSC18426,0.814
CG8300,DRSC23231,0.0209
CG7653,DRSC01886,-0.0592
faf,DRSC16942,1.71
CG32686,DRSC17645,0.0421
Alp11,DRSC20080,-0.375
SkpD,DRSC22208,-0.0758
Coprox,DRSC01996,0.067
Kaz-m1,DRSC16990,-0.518
CG43102,DRSC14797,-1.05
CG43102,DRSC16239,0.945
Pgant2,DRSC00587,-1.41
Alg7,DRSC02833,0.338
Alg7,DRSC02834,-0.523
Lint-O,DRSC18468,-1.06
Arc42,DRSC14340,-2.2
Arc42,DRSC15627,0.877
Sgf11,DRSC09987,1.28
